No constants are given. Whether binding was seen depends on the method and setting. Binding seen in cells or lysates may run through a third protein.
Target: interleukin-1 type I receptor kinase-1 (IRAK-1) (human (endogenous in human endothelial cells)) (UniProt P51617)
Experiment: co-IP

The chains behind the UniProt entries cited, without tags or fusion partners.
UniProt P51617: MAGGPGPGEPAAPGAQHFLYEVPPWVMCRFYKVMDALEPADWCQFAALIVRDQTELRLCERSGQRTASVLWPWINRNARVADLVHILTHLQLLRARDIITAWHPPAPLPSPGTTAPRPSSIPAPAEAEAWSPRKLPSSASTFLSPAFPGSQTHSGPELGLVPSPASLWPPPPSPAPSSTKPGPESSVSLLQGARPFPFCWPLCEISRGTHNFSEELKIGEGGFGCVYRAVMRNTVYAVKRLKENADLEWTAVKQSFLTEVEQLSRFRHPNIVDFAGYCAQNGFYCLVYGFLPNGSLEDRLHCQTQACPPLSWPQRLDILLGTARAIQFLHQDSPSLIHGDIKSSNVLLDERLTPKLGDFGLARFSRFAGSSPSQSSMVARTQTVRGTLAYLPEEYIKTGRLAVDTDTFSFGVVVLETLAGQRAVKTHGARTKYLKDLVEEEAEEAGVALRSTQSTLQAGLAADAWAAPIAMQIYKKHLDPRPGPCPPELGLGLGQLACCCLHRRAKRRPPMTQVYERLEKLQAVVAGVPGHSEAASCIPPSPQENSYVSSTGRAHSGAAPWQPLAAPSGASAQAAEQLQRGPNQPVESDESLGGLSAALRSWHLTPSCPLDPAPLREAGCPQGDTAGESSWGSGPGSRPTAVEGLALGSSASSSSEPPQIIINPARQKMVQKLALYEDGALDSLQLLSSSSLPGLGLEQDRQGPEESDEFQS
UniProt O43639: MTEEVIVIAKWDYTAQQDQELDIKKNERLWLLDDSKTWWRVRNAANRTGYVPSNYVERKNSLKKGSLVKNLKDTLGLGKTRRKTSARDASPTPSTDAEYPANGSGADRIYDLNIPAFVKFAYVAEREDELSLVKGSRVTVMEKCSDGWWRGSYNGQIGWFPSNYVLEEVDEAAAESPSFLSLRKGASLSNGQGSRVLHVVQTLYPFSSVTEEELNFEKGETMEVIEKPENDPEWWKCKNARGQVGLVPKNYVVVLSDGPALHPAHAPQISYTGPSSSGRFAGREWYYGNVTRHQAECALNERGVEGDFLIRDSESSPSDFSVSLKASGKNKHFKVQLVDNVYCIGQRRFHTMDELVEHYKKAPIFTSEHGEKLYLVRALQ

For Nck2 (from UniProt O43639 1-380), the binding was “no binding”.

— doi:10.1101/668129
